Values from PubChem BioAssay AID1259305 (Sanger Institute, 2017).

Aim: 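Find kinase knock-downs that boost drug killing of colorectal cancer cells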 (follow-up of hits)
System: human DIFI colorectal cancer cells
Reagent: single siRNA against human genes
Conditions: BYL719 1 µM, cetuximab 5 µg/ml or trametinib 10 nM, or DMSO vehicle, added one day after transfection; exposure time not given
Detection: 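Cell survival as a ratio to a non-targeting siRNA control pool, mean of replicates; per-drug synergy scores set knock-down plus drug against each alone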
Scale: synergy score with BYL719 and synergy score with Cetuximab and synergy score with Trametinib: higher = stronger combined killing than expected
Active means: 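An siRNA counts as synergistic (synthetic lethal) when its synergy score tops 0.10 for at least one of the three drugs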
In all, the deposit lists 160 reagents; below is a random part of them. 96 of them (60%) were called active. 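Each call covers one siRNA sequence in one cell line only; gene-level confirmation needs agreement across siRNAs and lines.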 The numbers tell different reagents against one gene apart. Not all columns of the deposit are shown. The record does not give: the amount of reagent, the time to read-out.

PAK1 (GeneID 5058) #1 scored synergy score with BYL719 = 0.209; synergy score with Cetuximab 0.176; synergy score with Trametinib 0.156; active.
After knock-down of PAK1 (GeneID 5058) #2, the record shows synergy score with BYL719 = 0.0696; synergy score with Cetuximab -0.0422; synergy score with Trametinib 0.0866; inactive.
Against PAK1 (GeneID 5058) #3 the deposit lists synergy score with BYL719 = 0.0832; synergy score with Cetuximab 0.0718; synergy score with Trametinib 0.166; active.
Knock-down of PAK1 (GeneID 5058) #4 gave: synergy score with BYL719 = -0.0385; synergy score with Cetuximab 0.118; synergy score with Trametinib 0.0997; active.
Knock-down of SF3B1 (GeneID 23451) #1 came out at: synergy score with BYL719 = -0.0145; synergy score with Cetuximab -0.11; synergy score with Trametinib -0.0419; inactive.
SF3B1 (GeneID 23451) #2 scored synergy score with BYL719 = -0.0584; synergy score with Cetuximab -0.102; synergy score with Trametinib 0.00856; inactive.
After knock-down of SF3B1 (GeneID 23451) #3 the results were synergy score with BYL719 = 0.00135; synergy score with Cetuximab -0.0342; synergy score with Trametinib -0.0145; inactive.
SF3B1 (GeneID 23451) #4 showed synergy score with BYL719 = 0.00381; synergy score with Cetuximab -0.0268; synergy score with Trametinib -0.0381; inactive.
NLK (GeneID 51701) #1 gave synergy score with BYL719 = 0.121; synergy score with Cetuximab 0.0226; synergy score with Trametinib 0.0178; active.
After knock-down of NLK (GeneID 51701) #2, the record shows synergy score with BYL719 = 0.105; synergy score with Cetuximab 0.235; synergy score with Trametinib 0.312; active.
With knock-down of NLK (GeneID 51701) #3, the screen gave synergy score with BYL719 = 0.153; synergy score with Cetuximab 0.0682; synergy score with Trametinib 0.2; active.
Depletion of NLK (GeneID 51701) #4 gave: synergy score with BYL719 = -0.228; synergy score with Cetuximab -0.00778; synergy score with Trametinib -0.243; inactive.

Entries listed so far whose gene name starts with P or p:
PAK1 (GeneID 5058) #1 → synergy score with BYL719 = 0.209; synergy score with Cetuximab = 0.176; synergy score with Trametinib = 0.156; Outcome = active
PAK1 (GeneID 5058) #2 → synergy score with BYL719 = 0.0696; synergy score with Cetuximab = -0.0422; synergy score with Trametinib = 0.0866; Outcome = inactive
PAK1 (GeneID 5058) #3 → synergy score with BYL719 = 0.0832; synergy score with Cetuximab = 0.0718; synergy score with Trametinib = 0.166; Outcome = active
PAK1 (GeneID 5058) #4 → synergy score with BYL719 = -0.0385; synergy score with Cetuximab = 0.118; synergy score with Trametinib = 0.0997; Outcome = active

Further entries:
CRIM1 (GeneID 51232) #1 showed synergy score with BYL719 = -0.00451; synergy score with Cetuximab -0.05; synergy score with Trametinib 0.0358; inactive.
Silencing of CRIM1 (GeneID 51232) #2 came out at: synergy score with BYL719 = 0.036; synergy score with Cetuximab 0.202; synergy score with Trametinib 0.276; active.
With knock-down of CRIM1 (GeneID 51232) #3, the screen gave synergy score with BYL719 = 0.25; synergy score with Cetuximab 0.0513; synergy score with Trametinib 0.113; active.
Against CRIM1 (GeneID 51232) #4, the entry reads synergy score with BYL719 = 0.0919; synergy score with Cetuximab 0.129; synergy score with Trametinib 0.3; active.
With knock-down of MARK3 (GeneID 4140) #1 the results were synergy score with BYL719 = -0.0155; synergy score with Cetuximab 0.0377; synergy score with Trametinib -0.0412; inactive.
For MARK3 (GeneID 4140) #2 the deposit lists synergy score with BYL719 = -0.176; synergy score with Cetuximab -0.0182; synergy score with Trametinib -0.104; inactive.
Depletion of MARK3 (GeneID 4140) #3 gave: synergy score with BYL719 = -0.125; synergy score with Cetuximab 0.26; synergy score with Trametinib 0.0238; active.
For MARK3 (GeneID 4140) #4 the deposit lists synergy score with BYL719 = -0.146; synergy score with Cetuximab 0.0392; synergy score with Trametinib 0.127; active.
